Series [1] addresses MAGE-A3 111-125 presented by MHC on cancer cells (Homo sapiens) (UniProt P43357). The experiment in a line: binding assay. The settings on record: confocal microscopy, protein on the cell surface, label: Cy3, single-stranded DNA.
Series [2] has the same target. As to the kind of experiment: flow cytometry. The settings on record: 400 nM; MCF-7, DLD-1, HepG2, A549, SK-MEL-28, Cal-27, AsPC-1 all positive; confocal also positive, seven normal lines background only (FIG. 3); protein on the cell surface; label: Cy3; single-stranded DNA; variant of Ap52.

Protein sequences, listed by entry. Tags and fused reporters are not part of them. Lines headed by an entry give the natural chain unless they say otherwise; changes in a name come on top.
UniProt P43357: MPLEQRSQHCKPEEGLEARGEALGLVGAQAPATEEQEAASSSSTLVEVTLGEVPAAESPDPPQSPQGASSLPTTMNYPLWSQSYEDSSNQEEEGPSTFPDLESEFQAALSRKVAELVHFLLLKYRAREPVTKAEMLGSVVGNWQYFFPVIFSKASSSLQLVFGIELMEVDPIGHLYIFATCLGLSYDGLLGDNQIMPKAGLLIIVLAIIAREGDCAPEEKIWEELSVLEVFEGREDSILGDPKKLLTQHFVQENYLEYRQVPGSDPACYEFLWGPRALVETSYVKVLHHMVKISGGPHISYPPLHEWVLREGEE

The values that follow come from patent US20170183660.

At least one result comes from cells or an extract, where the contact may be indirect. For part of these data: Negatives hold for the conditions tested.

For AGCACTCAATATTCCC [Cy3-Ap16], the binding result in series [1] (SK-MEL-28, MCF-7, Cal-27 positive, HEM-a, MCF-10A, OMF negative, variant of Ap16) was “binds”.

On to ATCATTCGGATGTGTG [Cy3-Ap16-control], for which the binding result in series [1] (SK-MEL-28, background only, variant of Ap16-control) is reported as “no binding”.

For “ATCCAGAGTGACGCAGCAAGCACTCAATATTCCCTGGACACGGTGGCTTAGT [Cy3-Ap52]”, the binding result in series [2] was “binds”.
